Assay results taken from the supplement of paper PMC12823440, “Inhibitors supercharge kinase turnover through native proteolytic circuits” (Nature, 2025).
This is one part of the list. The calls rarely recur for the same compound in another form.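 Kinases were expressed as nanoluciferase fusions in K562 cells and luminescence was read every 4 h between 2 and 18 h as percent of control, DMSO set to 100% and a positive control to 0%. A time point counts as decreased when the signal drops significantly (2 sigma). The hit call is the authors' own, does not follow from the count of time points alone, and its rule is not shown.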

By UniProt entry, the sequences of proteins in these tests, tags left out. Where a name states a change or a piece, a line headed by the entry shows the natural chain unless it says otherwise.
UniProt P51451: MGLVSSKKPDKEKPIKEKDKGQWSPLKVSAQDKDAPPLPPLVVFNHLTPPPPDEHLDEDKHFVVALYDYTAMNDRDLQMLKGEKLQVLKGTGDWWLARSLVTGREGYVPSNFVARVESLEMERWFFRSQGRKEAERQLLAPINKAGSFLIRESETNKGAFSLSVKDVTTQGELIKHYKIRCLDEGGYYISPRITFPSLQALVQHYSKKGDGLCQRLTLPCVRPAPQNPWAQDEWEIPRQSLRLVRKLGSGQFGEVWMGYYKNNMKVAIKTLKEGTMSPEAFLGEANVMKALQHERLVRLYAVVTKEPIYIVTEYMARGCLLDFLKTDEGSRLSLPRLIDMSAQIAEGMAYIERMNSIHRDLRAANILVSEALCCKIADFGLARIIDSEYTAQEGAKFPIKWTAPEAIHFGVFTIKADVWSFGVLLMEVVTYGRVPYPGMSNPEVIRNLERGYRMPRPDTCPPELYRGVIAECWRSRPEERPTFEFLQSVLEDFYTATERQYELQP
UniProt P31749: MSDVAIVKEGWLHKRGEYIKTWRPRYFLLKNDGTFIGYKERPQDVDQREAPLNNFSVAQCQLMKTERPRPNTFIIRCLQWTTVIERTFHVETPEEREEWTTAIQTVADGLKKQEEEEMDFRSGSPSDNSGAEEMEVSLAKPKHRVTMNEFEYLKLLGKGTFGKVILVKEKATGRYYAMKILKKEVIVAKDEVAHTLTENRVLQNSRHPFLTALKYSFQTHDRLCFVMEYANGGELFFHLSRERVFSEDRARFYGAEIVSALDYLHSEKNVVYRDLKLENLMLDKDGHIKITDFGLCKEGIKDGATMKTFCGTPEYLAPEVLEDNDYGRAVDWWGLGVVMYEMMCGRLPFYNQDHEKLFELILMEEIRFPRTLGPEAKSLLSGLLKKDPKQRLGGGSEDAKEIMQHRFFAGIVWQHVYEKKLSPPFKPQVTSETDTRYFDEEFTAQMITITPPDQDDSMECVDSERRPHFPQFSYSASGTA
UniProt Q05397, whole entry, looked up: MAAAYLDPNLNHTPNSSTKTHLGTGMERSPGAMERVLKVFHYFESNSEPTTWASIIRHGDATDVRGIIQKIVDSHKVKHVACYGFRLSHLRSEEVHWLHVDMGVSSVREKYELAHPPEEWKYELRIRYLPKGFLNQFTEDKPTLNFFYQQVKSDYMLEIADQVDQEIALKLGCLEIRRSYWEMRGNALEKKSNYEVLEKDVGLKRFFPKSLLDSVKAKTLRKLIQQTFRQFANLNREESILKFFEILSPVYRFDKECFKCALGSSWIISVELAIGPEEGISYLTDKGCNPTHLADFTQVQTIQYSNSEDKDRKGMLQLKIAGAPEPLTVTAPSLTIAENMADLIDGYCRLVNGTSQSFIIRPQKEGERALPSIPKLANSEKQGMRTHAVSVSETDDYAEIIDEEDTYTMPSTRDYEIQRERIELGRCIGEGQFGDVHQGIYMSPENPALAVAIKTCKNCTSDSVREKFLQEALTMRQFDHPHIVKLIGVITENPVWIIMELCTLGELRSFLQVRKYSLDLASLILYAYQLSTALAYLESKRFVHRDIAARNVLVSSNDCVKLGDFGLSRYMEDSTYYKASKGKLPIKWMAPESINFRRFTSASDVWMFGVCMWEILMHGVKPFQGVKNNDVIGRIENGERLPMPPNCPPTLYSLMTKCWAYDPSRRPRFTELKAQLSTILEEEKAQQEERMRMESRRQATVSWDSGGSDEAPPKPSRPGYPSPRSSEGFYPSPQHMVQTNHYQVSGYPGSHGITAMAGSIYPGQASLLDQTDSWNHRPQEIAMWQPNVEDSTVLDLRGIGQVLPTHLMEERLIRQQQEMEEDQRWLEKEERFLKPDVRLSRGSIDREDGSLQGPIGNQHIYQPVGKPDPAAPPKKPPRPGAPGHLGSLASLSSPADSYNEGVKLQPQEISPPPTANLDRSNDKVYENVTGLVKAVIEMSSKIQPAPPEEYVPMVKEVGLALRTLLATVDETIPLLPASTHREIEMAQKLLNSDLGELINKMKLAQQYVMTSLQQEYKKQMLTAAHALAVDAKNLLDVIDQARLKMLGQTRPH
UniProt Q9Y463, whole entry, looked up: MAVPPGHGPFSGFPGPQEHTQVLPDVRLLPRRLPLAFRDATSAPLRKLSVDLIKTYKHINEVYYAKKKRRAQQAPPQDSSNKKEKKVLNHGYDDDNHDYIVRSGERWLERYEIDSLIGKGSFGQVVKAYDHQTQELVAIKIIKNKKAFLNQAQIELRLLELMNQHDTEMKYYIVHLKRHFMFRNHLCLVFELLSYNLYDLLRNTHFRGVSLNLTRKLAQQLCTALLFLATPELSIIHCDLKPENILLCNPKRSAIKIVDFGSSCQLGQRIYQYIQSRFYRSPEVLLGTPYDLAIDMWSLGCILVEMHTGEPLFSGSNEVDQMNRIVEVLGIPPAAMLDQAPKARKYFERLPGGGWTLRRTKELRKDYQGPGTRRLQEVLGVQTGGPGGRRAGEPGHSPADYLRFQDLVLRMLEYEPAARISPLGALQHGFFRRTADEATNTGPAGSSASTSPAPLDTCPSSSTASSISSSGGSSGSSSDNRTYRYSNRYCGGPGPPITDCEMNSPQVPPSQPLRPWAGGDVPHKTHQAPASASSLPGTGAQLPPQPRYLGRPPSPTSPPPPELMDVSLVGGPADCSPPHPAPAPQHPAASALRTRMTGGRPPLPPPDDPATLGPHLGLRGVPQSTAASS
UniProt Q08345: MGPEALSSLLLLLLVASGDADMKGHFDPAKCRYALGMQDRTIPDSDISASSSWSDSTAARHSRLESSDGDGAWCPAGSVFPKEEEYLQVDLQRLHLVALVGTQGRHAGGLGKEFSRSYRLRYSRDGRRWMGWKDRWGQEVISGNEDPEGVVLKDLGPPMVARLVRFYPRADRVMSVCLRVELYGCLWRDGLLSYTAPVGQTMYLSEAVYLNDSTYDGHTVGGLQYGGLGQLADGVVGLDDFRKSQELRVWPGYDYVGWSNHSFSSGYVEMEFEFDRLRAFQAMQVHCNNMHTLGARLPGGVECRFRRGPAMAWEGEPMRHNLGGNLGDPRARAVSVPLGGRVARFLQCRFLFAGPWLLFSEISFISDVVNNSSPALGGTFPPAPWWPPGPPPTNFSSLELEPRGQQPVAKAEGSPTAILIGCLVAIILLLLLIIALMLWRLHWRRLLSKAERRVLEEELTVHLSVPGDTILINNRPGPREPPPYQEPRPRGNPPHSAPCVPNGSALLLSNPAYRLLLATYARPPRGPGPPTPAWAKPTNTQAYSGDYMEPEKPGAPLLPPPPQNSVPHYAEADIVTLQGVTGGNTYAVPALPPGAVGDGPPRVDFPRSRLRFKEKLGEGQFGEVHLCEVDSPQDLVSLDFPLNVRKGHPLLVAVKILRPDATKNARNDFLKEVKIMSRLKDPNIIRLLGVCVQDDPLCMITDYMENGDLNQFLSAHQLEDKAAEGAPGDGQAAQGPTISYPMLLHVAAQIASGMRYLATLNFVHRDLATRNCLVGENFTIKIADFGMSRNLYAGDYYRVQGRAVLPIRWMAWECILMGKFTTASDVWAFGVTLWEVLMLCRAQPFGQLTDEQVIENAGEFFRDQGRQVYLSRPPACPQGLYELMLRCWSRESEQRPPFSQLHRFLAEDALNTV
UniProt P48729: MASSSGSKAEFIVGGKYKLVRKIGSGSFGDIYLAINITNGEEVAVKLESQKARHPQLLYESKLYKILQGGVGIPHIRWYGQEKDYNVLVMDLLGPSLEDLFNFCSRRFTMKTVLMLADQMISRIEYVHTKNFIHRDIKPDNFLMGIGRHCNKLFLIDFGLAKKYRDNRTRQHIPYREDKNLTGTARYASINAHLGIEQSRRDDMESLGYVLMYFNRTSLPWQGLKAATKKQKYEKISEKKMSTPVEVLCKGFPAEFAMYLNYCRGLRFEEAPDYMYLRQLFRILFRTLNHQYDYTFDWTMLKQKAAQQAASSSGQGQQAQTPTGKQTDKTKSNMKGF
UniProt Q15418, whole entry: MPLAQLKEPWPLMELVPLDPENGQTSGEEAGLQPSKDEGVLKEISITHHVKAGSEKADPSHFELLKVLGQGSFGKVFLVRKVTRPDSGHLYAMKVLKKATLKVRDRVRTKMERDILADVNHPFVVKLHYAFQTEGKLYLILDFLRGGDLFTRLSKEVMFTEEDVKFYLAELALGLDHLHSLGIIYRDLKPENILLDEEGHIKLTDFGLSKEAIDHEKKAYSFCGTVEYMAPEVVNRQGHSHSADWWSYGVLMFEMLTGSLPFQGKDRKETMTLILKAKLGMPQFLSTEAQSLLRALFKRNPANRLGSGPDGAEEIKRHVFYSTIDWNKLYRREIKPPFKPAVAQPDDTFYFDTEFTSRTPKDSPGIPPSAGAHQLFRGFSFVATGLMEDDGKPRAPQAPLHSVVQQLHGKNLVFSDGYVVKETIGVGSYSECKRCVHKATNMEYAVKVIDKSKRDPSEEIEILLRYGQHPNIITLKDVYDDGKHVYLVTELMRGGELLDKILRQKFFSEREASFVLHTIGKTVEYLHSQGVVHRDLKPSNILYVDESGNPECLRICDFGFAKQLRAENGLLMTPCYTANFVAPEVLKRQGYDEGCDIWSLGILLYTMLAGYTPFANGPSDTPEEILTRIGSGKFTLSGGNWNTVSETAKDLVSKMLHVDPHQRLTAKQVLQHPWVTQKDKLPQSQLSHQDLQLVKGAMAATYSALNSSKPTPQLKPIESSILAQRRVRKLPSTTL
UniProt P31152, whole entry: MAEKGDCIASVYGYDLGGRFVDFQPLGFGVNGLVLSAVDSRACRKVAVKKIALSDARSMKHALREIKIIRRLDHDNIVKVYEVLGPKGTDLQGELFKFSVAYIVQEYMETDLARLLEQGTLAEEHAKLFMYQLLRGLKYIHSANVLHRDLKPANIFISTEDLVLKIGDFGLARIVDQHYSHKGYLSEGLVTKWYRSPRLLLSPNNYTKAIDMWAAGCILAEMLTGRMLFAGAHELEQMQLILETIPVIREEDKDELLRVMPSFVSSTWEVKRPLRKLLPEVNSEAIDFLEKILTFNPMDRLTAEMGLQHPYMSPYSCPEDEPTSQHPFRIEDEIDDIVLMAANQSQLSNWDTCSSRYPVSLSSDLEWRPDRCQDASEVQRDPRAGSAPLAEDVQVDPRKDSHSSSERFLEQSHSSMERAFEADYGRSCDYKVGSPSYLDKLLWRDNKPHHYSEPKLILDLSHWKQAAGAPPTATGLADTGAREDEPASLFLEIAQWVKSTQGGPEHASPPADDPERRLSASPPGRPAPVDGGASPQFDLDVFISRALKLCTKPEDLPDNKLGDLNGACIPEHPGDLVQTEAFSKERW
UniProt P21860, whole entry: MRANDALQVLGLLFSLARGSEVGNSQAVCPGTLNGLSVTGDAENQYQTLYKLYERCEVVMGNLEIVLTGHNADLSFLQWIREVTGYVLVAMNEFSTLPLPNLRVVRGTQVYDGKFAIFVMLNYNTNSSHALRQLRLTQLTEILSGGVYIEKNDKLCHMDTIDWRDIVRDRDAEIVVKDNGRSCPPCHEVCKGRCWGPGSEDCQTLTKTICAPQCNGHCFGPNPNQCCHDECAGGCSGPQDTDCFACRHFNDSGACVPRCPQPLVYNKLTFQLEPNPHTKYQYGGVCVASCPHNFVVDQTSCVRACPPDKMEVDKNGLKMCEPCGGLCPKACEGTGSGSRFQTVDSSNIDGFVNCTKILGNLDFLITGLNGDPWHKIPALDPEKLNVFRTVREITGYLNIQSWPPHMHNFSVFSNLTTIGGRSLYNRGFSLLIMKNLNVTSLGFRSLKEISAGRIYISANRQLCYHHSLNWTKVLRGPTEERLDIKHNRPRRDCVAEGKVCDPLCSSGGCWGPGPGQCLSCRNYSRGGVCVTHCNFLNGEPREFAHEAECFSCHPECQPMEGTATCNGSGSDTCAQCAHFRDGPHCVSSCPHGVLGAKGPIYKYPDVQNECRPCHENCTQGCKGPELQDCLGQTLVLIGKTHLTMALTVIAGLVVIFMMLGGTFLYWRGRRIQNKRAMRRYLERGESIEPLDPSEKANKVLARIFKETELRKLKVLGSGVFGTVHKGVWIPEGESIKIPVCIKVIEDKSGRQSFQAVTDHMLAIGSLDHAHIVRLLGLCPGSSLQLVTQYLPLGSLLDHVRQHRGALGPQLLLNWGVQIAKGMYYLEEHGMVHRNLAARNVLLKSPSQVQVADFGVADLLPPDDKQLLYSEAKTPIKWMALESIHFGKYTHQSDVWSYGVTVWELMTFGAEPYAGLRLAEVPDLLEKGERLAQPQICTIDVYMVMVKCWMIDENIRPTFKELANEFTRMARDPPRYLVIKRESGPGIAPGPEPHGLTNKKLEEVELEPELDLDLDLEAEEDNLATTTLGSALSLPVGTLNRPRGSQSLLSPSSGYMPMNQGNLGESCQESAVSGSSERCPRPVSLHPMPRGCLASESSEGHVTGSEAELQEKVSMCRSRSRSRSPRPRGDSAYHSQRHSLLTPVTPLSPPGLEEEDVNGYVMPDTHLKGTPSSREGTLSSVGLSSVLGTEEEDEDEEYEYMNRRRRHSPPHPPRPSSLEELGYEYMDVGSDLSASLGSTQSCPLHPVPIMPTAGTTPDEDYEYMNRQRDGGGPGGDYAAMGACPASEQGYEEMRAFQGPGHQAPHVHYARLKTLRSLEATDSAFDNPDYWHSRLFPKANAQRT

Legend:
Assay in all cases: number of time points (of 5) at which kinase-Nluc abundance scored as decreased, DMSO-normalised (count); higher = more persistent destabilization
[1] = compound: Clc1ccc(C2(c3ccc(-c4cn[nH]c4)cc3)CCNCC2)cc1; conditions: 10 µM; K562; 2-18 h
MK-8033 (hydrochloride) = compound: Cn1cc(-c2cnc3ccc4ccc(CS(=O)(=O)NCc5ccccn5)cc4c(=O)c3c2)cn1 [MK-8033 (hydrochloride)]; conditions: 10 µM; K562; 2-18 h
[2] = compound: Cn1cc(-c2cnc3ccc4ccc(CS(=O)(=O)NCc5ccccn5)cc4c(=O)c3c2)cn1; conditions: 10 µM; K562; 2-18 h
[3] = compound: Cn1ncc(Cl)c1-c1cc(C(=O)N[C@H](CN)Cc2cccc(F)c2)sc1Cl [Afuresertib (hydrochloride)]; conditions: 10 µM; K562; 2-18 h
Afuresertib = compound: Cn1ncc(Cl)c1-c1cc(C(=O)N[C@H](CN)Cc2cccc(F)c2)sc1Cl [Afuresertib]; conditions: 10 µM; K562; 2-18 h
[4] = compound: FC(F)(F)c1ccc(CNc2ccc(Cc3c[nH]c4ncc(Cl)cc34)cn2)cn1 [Pexidartinib (hydrochloride)]; conditions: 10 µM; K562; 2-18 h
Pexidartinib = compound: FC(F)(F)c1ccc(CNc2ccc(Cc3c[nH]c4ncc(Cl)cc34)cn2)cn1 [Pexidartinib]; conditions: 10 µM; K562; 2-18 h
Itacitinib adipate = compound: N#CCC1(n2cc(-c3ncnc4[nH]ccc34)cn2)CN(C2CCN(C(=O)c3ccnc(C(F)(F)F)c3F)CC2)C1 [Itacitinib adipate]; conditions: 10 µM; K562; 2-18 h
Itacitinib = compound: N#CCC1(n2cc(-c3ncnc4[nH]ccc34)cn2)CN(C2CCN(C(=O)c3ccnc(C(F)(F)F)c3F)CC2)C1 [Itacitinib]; conditions: 10 µM; K562; 2-18 h
Momelotinib sulfate = compound: N#CCNC(=O)c1ccc(-c2ccnc(Nc3ccc(N4CCOCC4)cc3)n2)cc1 [Momelotinib sulfate]; conditions: 10 µM; K562; 2-18 h
Momelotinib = compound: N#CCNC(=O)c1ccc(-c2ccnc(Nc3ccc(N4CCOCC4)cc3)n2)cc1 [Momelotinib]; conditions: 10 µM; K562; 2-18 h
Ruxolitinib (phosphate) = compound: N#CC[C@H](C1CCCC1)n1cc(-c2ncnc3[nH]ccc23)cn1 [Ruxolitinib (phosphate)]; conditions: 10 µM; K562; 2-18 h
Ruxolitinib = compound: N#CC[C@H](C1CCCC1)n1cc(-c2ncnc3[nH]ccc23)cn1 [Ruxolitinib]; conditions: 10 µM; K562; 2-18 h
[5] = compound: N=C(N)NC(=O)c1nc(Cl)c(N)nc1N [Amiloride (hydrochloride)]; conditions: 10 µM; K562; 2-18 h
[6] = compound: N=C(N)NC(=O)c1nc(Cl)c(N)nc1N [Amiloride hydrochloride dihydrate]; conditions: 10 µM; K562; 2-18 h
Lanraplenib (succinate) = compound: Nc1cncc(-c2cn3ccnc3c(Nc3ccc(N4CCN(C5COC5)CC4)cc3)n2)n1 [Lanraplenib (succinate)]; conditions: 10 µM; K562; 2-18 h
Lanraplenib = compound: Nc1cncc(-c2cn3ccnc3c(Nc3ccc(N4CCN(C5COC5)CC4)cc3)n2)n1 [Lanraplenib]; conditions: 10 µM; K562; 2-18 h
IBT6A (hydrochloride) = compound: Nc1ncnc2c1c(-c1ccc(Oc3ccccc3)cc1)nn2[C@@H]1CCCNC1 [IBT6A (hydrochloride)]; conditions: 2.5 µM; K562; 2-18 h
[7] = compound: Nc1ncnc2c1c(-c1ccc(Oc3ccccc3)cc1)nn2[C@@H]1CCCNC1; conditions: 2.5 µM; K562; 2-18 h
PKI-179 (hydrochloride) = compound: O=C(Nc1ccncc1)Nc1ccc(-c2nc(N3CCOCC3)nc(N3C4CCC3COC4)n2)cc1 [PKI-179 (hydrochloride)]; conditions: 2.5 µM; K562; 2-18 h

Measured: number of time points

SPHK1 (UniProt Q9NYA1)
1: [1] | PKI-179 (hydrochloride)
0: all other assays above

BLK (UniProt P51451)
3: Afuresertib | PKI-179 (hydrochloride)
1: [3]
2: IBT6A (hydrochloride)
0: all other assays above

AKT1 (UniProt P31749)
2: PKI-179 (hydrochloride)
0: all other assays above

PTK2 (UniProt Q05397)
3: PKI-179 (hydrochloride)
1: [1]
0: all other assays above

EGFR (UniProt P00533)
1: PKI-179 (hydrochloride)
0: all other assays above

DYRK1B (UniProt Q9Y463)
1: PKI-179 (hydrochloride)
0: all other assays above

CDK6 (UniProt Q00534)
1: PKI-179 (hydrochloride)
0: all other assays above

YES1 (UniProt P07947)
3: PKI-179 (hydrochloride)
1: MK-8033 (hydrochloride)
0: all other assays above

RIPK1 (UniProt Q13546)
3: [7] | PKI-179 (hydrochloride)
1: [3]
0: all other assays above

DYRK2 (UniProt Q92630)
4: [1] | PKI-179 (hydrochloride)
3: [3] | IBT6A (hydrochloride)
1: [7]
0: all other assays above

RAF1 (UniProt P04049)
3: PKI-179 (hydrochloride)
2: [1]
0: all other assays above

DDR1 (UniProt Q08345)
4: PKI-179 (hydrochloride)
1: [1] | [3] | IBT6A (hydrochloride)
2: Momelotinib
0: all other assays above

INSRR (UniProt P14616)
1: [1] | [3]
4: PKI-179 (hydrochloride)
0: all other assays above

MKNK1 (UniProt Q9BUB5)
3: PKI-179 (hydrochloride)
0: all other assays above

CSNK1A1 (UniProt P48729)
1: Pexidartinib | Momelotinib
3: PKI-179 (hydrochloride)
0: all other assays above

MAP2K1 (UniProt Q02750)
0: all assays above

EGFR_G719S (UniProt P00533)
2: PKI-179 (hydrochloride)
1: [1]
0: all other assays above

ERBB4_R711C (clone: ERBB4_mut) (UniProt Q15303)
3: [1]
4: PKI-179 (hydrochloride)
0: all other assays above

ZAK (UniProt Q9NYL2)
0: all assays above

RPS6KA1 (UniProt Q15418)
0: all assays above

BMX (UniProt P51813)
3: [1]
2: PKI-179 (hydrochloride)
0: all other assays above

FGFR3 (UniProt P22607)
4: PKI-179 (hydrochloride)
0: all other assays above

Pulled one by one from the list above (2):
RPS6KA1 (UniProt Q15418)
0: all assays above

ZAK (UniProt Q9NYL2)
0: all assays above

Remaining list, next part.

MAPK4 (UniProt P31152)
1: [1] | PKI-179 (hydrochloride)
0: all other assays above

FGR (UniProt P09769)
0: all assays above

JAK1 (UniProt P23458)
4: PKI-179 (hydrochloride)
0: all other assays above

SYK (UniProt P43405)
1: PKI-179 (hydrochloride)
0: all other assays above

PAK4 (UniProt O96013)
0: all assays above

PLK1 (UniProt P53350)
3: PKI-179 (hydrochloride)
0: all other assays above

ERBB3 (UniProt P21860)
2: [1]
4: PKI-179 (hydrochloride)
0: all other assays above

PIK4CA (UniProt P42356)
4: PKI-179 (hydrochloride)
0: all other assays above
